# From article doi:10.1101/2024.03.06.583679
# These are yes or no findings as the source states them, for the method shown. In cells and extracts the contact can be indirect. Some entries that bind do so weakly or less than the wild type.
# B1: interferon regulatory factor 9 (IRF9), Q00978 1-393 (protein)
# chain: MASGRARCTRKLRNWVVEQVESGQFPGVCWDDTAKTMFRIPWKHAGKQDFREDQDAAFFKAWAIFKGKYKEGDTGGPAVWKTRLRCALNKSSEFKEVPERGRMDVAEPYKVYQLLPPGIVSGQPGTQKVPSKRQHSSVSSERKEEEDAMQNCTLSPSVLQDSLNNEEEGASGGAVHSDIGSSSSSSSPEPQEVTDTTEAPFQGDQRSLEFLLPPEPDYSLLLTFIYNGRVVGEAQVQSLDCRLVAEPSGSESSMEQVLFPKPGPLEPTQRLLSQLERGILVASNPRGLFVQRLCPIPISWNAPQAPPGPGPHLLPSNECVELFRTAYFCRDLVRYFQGLGPPPKFQVTLNFWEESHGSSHTPQNLITVKMEQAFARYLLEQTPEQQAAILSLV
# Target: human STAT2, HA-tagged (HA-STAT2-Myc) (human), P52630
# Assay: co-IP
# Conditions: remark: other sources report otherwise
binder,measurement,value
B1,binding,binds
